Test results: PubChem BioAssay AID1508600 (Functional Genomics Laboratory (NCATS/FGL), 2020)
The whole screen tested about 53,000 sequences, of which about 3,700 (7%) were called active.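 The calls were made as follows: active = gene knockdowns whose robust z-score for IL-1 alpha signal is at least 2 or at most -2, so actives lie on both sides; inactive = the rest.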 The list shows a part of the results.

experiment: Components of the Cytosolic LPS Sensing Pathway: Gene Identification via Genome-wide siRNA Screen; conditions: RAW264.7 macrophages, IL-1a HTRF, actives lie on both sides, screened at 100 nM (by protocol), cells primed 5 h with Pam3CSK4 first;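 also: robust z of the log signal after scaling to non-targeting control siRNA wells of the plate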
Outline: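 Read-out: IL-1a HTRF on supernatant, divided by plate negative-control median ×100, log-transformed and converted to robust z-score. Cells were RAW264.7 given 100 nM siRNA, Pam3CSK4-primed 5 hours, then LipidA-transfected 24 hour.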

| Sequence | z-score |
| --- | --- |
| GGGAGCUAGAUAUCCGGAATT against Ndufv3 | inactive: 0.113 |
| GGUCUGUGUCAAAAACCACTT against Klk1b11 | inactive: -1.11 |
| CCUUGUUCAAAAAGAUGGCTT against Serpina1f | active: -2.08 |
| CCCUACCCAGUUUCAGUUGTT against Phf12 | inactive: 0.206 |
| GCCCUAUCUACCAUAACACTT against Dok3 | active: -2.11 |
| GGUGCUGACUGCUUUUGGATT against Hbb-y | inactive: 1.32 |
| GGCAUUCGAAGGGUCUACATT against Kcna7 | inactive: -1.22 |
| GGAAAAAUGACUGAUCUCUTT against Unc5c | inactive: -0.0354 |
| GCCAAAUCAUGGGUCUGGUTT against Npas3 | inactive: 0.969 |
| GGUUAUCCCAACUACCAGCTT against Timm17b | inactive: 0.734 |
| GGAAGAAAAGGCUUCUCUUTT against Ube3c | inactive: -0.00788 |
| GGGCUGUGAUAUGCAACUCTT against Teddm2 | inactive: -0.988 |
| GCGAUUAACGGAUCGUACCTT against Letmd1 | inactive: 0.192 |
| GGACAAGCUCCAAAACAACTT against Srsf4 | inactive: -0.292 |
| GGACCUGCGUUUUGGCACATT against Aadacl4fm1 | inactive: 0.46 |
| GGAGUUUCUCAGUGAAGGATT against Traf4 | inactive: 0.285 |
| GGACAUUUCCUCGCUUGACTT against L3mbtl2 | inactive: 0.0388 |
| CCUCCUCAGUAUCCGUAUATT against Nudt21 | inactive: -0.632 |
| GGACAUCAUCCAGGAAAACTT against Bcar3 | inactive: -0.347 |
| GCUACAAACAACAAGUGACTT against 2210408I21Rik | inactive: 0.166 |
| GCUUCUGAUUGAGAGUUCATT against D830044D21Rik | inactive: 0.00762 |
| GGCUUUACUUCUUGCUGUGTT against Olfr1412 | inactive: -0.918 |
| GGUGUAUUAAAAUGUCAGUTT against Marveld2 | inactive: 1.92 |

| Sequence | z-score |
| --- | --- |
| CGUGAAGAUUCUUAAGGCGTT against Ppil1 | inactive: 0.716 |
| GCGGAAGAAGGCUUGUUACTT against Wdr95 | inactive: 0.499 |
| GGAGCCGACUUCUUAUUCGTT against Mastl | inactive: -0.914 |
| GCCCUGAUGCCAAAUUCCATT against Serinc3 | inactive: -0.35 |
| GCCACGAAAAGAAGAGAAUTT against Vpreb2 | inactive: 1.08 |
| GGAUGGUGAUUUGUUUCCUTT against Morf4l2 | inactive: 0.125 |
| GGACAGCUACAGGAAAAUGTT against Tjp1 | inactive: -0.124 |
| GGAAGGUGCUAAAAAUAUATT against Pdhx | inactive: 0.23 |
| CCAGCACUAAAAGUAAGUGTT against Vmn1r177 | inactive: 0.154 |
| GCAAUAAGGUAAAUGACUATT against Ercc6 | inactive: -0.0442 |
| CCUUCUACCUACUUAUUGGTT against Tomm70a | inactive: 0.178 |
| GGAAGAUGGUAUUCCAUAUTT against Dmc1 | inactive: -0.368 |
| GGUUUCGAGAAAACAACAATT against Miip | inactive: 0.566 |
| GGACAGUUGACCUAGCAUATT against 9330155M09Rik | inactive: 0.964 |
| GGAUAUAGCUCAACACUUUTT against Mfsd7a | inactive: 0.751 |
| GCUAGACCGAAGAAUCCUGTT against Spatc1 | inactive: -1.1 |
| GCUUCAGAAGCUUAAUAGCTT against Cited1 | inactive: -0.316 |
| GCUCAAAUGUUCUAAAAGCTT against Acmsd | inactive: -0.332 |
| GGUGGUCCAGACCAAGUACTT against Pfdn5 | inactive: -1.02 |
| CCAAGCGAAUGCUGGACAUTT against Cox4i1 | active: 3.44 |
| GGACUACGCCGACUUUGUCTT against Cog2 | inactive: -1.89 |
| GCAAGCAAGGAAAAAGCUATT against Glis3 | inactive: -0.468 |
| GGACACACUCUACUUCCCATT against Mrgprg | inactive: -0.196 |

Fetched one by one from the entries so far:

| Sequence | z-score |
| --- | --- |
| GGACAUCAUCCAGGAAAACTT against Bcar3 | inactive: -0.347 |
| GCUAGACCGAAGAAUCCUGTT against Spatc1 | inactive: -1.1 |

(next part)

| Sequence | z-score |
| --- | --- |
| CGGUCUGAACUACUGUGUGTT against Shc4 | inactive: 0.631 |
| GGAGUGCAACAAGAAGUUCTT against Klf13 | inactive: 1.26 |
| GGAUUGCAUUAGGAAAGAATT against Fancl | inactive: 0.0536 |
| GGACAAGAUAUCCAAGUGGTT against Dennd2a | inactive: 1.97 |
| GCAAUGGAACCACCUCUGATT against Zic5 | inactive: 1.41 |
| GGCUUUCAGGCUUUUUGCATT against Spink12 | inactive: 0.961 |
| GGAACUUGAUCAAGAAAAUTT against Matr3 | inactive: -0.0966 |
| GGAGAAAAUUUUCACCACUTT against Slc25a24 | inactive: -1.62 |
| GCCAUAGCUCGAGACUCUCTT against Tfap2b | inactive: 0.0596 |
| GGUCUCAAGUUUUACAUUCTT against Prss35 | active: 2.2 |
| CCUGAUAGUCUUGAAGAUGTT against Orm2 | inactive: 0.696 |
| GGUAGUCACUAUCCUGAUUTT against Olfr1086 | inactive: -0.212 |
| CCCUAAAGAGUGGGAUGUATT against Pi15 | inactive: 0.709 |
| GGCUCGAGAGAAGAAGUACTT against Gjb5 | inactive: -0.14 |
| CCCAUCGAUCCAUCACAUUTT against Olfr63 | inactive: -1.47 |
| GCUUUUAGGGAUUAUUCAGTT against Zfp606 | inactive: 1.21 |
| GGAAGCCAAGUGUACAUUUTT against Clca3b | inactive: 0.816 |
| GGAGGUAAAGCUAAGUAAATT against Gtf3c2 | inactive: 1.15 |
| GGUUCUGGCUCACAUUCACTT against H2-M3 | inactive: 0.979 |
| CGCGUGAAAGGUUUGAGAGTT against Cd24a | inactive: -0.875 |
| GGAGUAGUAGCUAUUAUAUTT against Kctd9 | inactive: 1.89 |
| GGCUAGAGAAAUAGUGUUGTT against Reep1 | inactive: 0.218 |

Looked up above:
GGACCUGCGUUUUGGCACATT against Aadacl4fm1 | z-score: inactive: 0.46
CGUGAAGAUUCUUAAGGCGTT against Ppil1 | z-score: inactive: 0.716
CCUUGUUCAAAAAGAUGGCTT against Serpina1f | z-score: active: -2.08
GCCAAAUCAUGGGUCUGGUTT against Npas3 | z-score: inactive: 0.969
